Experimental data: PMC8947033
These are yes or no findings as the source states them, for the method shown. In cells and extracts the contact can be indirect. Some results given as binding are weak or reduced against the parent protein; the word gives no strength. Tags and fused reporters may be left off the sequences shown.

The chains behind the UniProt entries cited, without tags or fusion partners.
UniProt Q9UKV8: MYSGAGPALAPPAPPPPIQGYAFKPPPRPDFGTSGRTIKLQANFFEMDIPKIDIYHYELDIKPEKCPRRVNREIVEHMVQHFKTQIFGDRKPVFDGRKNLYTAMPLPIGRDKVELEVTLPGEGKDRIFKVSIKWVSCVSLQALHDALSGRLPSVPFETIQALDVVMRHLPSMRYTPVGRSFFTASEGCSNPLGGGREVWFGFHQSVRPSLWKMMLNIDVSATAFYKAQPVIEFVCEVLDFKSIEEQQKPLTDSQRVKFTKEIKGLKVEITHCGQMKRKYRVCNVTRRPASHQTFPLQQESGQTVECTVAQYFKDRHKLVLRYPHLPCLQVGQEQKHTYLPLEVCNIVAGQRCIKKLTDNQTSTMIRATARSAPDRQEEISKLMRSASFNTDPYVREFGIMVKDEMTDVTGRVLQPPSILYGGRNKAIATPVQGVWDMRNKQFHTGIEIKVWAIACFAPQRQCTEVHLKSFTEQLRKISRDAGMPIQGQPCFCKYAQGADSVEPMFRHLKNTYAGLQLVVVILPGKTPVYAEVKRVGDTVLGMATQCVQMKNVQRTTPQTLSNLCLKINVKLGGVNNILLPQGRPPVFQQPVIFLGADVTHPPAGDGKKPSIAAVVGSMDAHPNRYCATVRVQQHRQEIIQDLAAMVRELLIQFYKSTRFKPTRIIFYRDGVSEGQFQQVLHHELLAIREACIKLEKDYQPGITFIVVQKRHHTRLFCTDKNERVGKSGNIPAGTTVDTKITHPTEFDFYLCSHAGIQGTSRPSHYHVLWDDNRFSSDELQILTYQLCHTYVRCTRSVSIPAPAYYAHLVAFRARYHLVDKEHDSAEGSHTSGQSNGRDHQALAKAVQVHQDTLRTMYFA

Target: T1, Myc-SERBP1 (UniProt Q8NC51)
T1 sequence: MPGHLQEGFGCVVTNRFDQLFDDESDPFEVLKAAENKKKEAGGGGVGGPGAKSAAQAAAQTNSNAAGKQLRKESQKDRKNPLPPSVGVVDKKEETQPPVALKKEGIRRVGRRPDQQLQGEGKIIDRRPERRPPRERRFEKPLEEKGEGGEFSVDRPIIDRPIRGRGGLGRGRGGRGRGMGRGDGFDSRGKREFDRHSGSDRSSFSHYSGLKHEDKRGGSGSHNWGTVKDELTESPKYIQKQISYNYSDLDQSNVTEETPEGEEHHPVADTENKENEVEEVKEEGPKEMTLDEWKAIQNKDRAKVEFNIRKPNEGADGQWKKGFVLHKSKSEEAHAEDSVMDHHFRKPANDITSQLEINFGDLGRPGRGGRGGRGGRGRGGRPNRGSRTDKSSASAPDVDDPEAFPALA
Experiment: co-IP; SH-SY5Y cells co-transfected with Myc-SERBP1 and FLAG-Ago2 (control: Myc tag only and FLAG-Ago2); IP with anti-Myc agarose beads, elution, Western blot with anti-FLAG antibody

- binding: binds
Substance: FLAG-hAGO2 (human Argonaute2) (from UniProt Q9UKV8 1-859)
